Data source: PubChem BioAssay AID1224828 (NIAID, 2016)

- Assay: 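Find genes required for NF-kappaB p65 moving into the nucleus after LPS in mouse macrophages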 (primary screen)
- System: mouse RAW264.7 G9 macrophage reporter cells (GFP-p65, Tnf promoter-mCherry)
- Reagent: siRNA pool against mouse genes, 100 nM
- Time to read-out: 2 days siRNA transfection, then 40 min LPS before fixation
- Treatment: LPS (Salmonella minnesota R595) at 10 ng/ml
- Detection: 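Imaged p65 nuclear translocation ratio, normalised to the plate median, converted to robust z-scores and averaged across two replicates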
- Scale: p65 translocation robust z-score: higher = more nuclear NF-kappaB p65 after LPS than the plate median; nuclear/cytoplasmic p65 ratio: higher = more nuclear NF-kappaB p65
- Rule for the call: 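Called active when z exceeds 3.3 or falls under -1.56 (median of Tlr4 controls), giving activity score of at least 50; no calls for control wells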
- Meaning of the calls: active = hit (p65 shift raised or lowered); inactive = no clear change
This is one part, drawn at random, of about 17,000 reagents tested. 762 of all reagents (4.5%) were called active. 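Active calls include both raised and lowered p65 entry, mostly lowered; wells with fewer than 50 cells lack a z-score.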 The raw values are shown without normalisation. A number with no mark means an inactive call. The numbers tell different reagents against one gene apart. Reagent sequences are not shown.

Target gene,reagent,p65 translocation robust z-score,"nuclear/cytoplasmic p65 ratio, rep 1","nuclear/cytoplasmic p65 ratio, rep 2",low cell count flag
Atrip,1,-0.66,1.55,1.48,enough cells to score
Pick1,1,,1.63,1.33,fewer than 50 cells per well; well left out of scoring
C1s1,1,1.39,1.84,1.81,enough cells to score
Zcchc7,1,0.09,1.54,1.6,enough cells to score
Zcchc7,2,,1.37,1.44,fewer than 50 cells per well; well left out of scoring
Dcp1a,1,1.11,1.64,1.44,enough cells to score
Sccpdh,1,-1.19,1.28,1.35,enough cells to score
Ccdc14,1,1.09,1.85,1.52,enough cells to score
Prok2,1,0.81,1.47,1.32,enough cells to score
Spink2,1,-0.38,1.34,1.37,enough cells to score
Prdx6,1,-0.42,1.42,1.37,enough cells to score
Arih2,1,0.67,1.63,1.68,enough cells to score
Serp1,1,0.02,1.55,1.64,enough cells to score
Icos,1,0.01,1.41,1.41,enough cells to score
Drd3,1,,1.61,1.14,fewer than 50 cells per well; well left out of scoring
Sit1,1,0.04,1.38,1.28,enough cells to score
Piwil4,1,0.11,1.46,1.54,enough cells to score
Qtgal,1,0.29,1.36,1.54,enough cells to score
Mycbp2,1,,1.32,1.26,fewer than 50 cells per well; well left out of scoring
Clec2g,1,0.99,1.61,1.52,enough cells to score
Mapk1ip1l,1,0.28,1.33,1.56,enough cells to score
Map1lc3a,1,,1.2,1.03,fewer than 50 cells per well; well left out of scoring
Pde1b,1,0,1.46,1.32,enough cells to score
Srgn,1,-0.8,1.38,1.31,enough cells to score
Rassf10,1,-0.95,1.22,1.15,enough cells to score
Cfhr1,1,-0.08,1.56,1.79,enough cells to score
Adam21,1,-0.67,1.43,1.66,enough cells to score
Glyctk,1,-0.48,1.21,1.49,enough cells to score
Fam53a,1,-1.73 (active),1.1,1.27,enough cells to score
Polm,1,,1.31,1.2,fewer than 50 cells per well; well left out of scoring
Qpctl,1,-0.97,1.22,1.34,enough cells to score
Bub1b,1,-1.5,1.41,1.23,enough cells to score
Zfp42,1,,0,1.38,fewer than 50 cells per well; well left out of scoring
Glrp1,1,1.2,1.77,1.63,enough cells to score
Zfp334,1,-0.23,1.36,1.24,enough cells to score
Rpl7,1,,1.36,1.13,fewer than 50 cells per well; well left out of scoring
Ubxn2b,1,,1.17,1.15,fewer than 50 cells per well; well left out of scoring
Gm9927,1,1.71,1.69,1.75,enough cells to score
Haglr,1,1.01,1.54,1.71,enough cells to score
Phex,1,-0.23,1.51,1.34,enough cells to score

In a second layout: results already given
Fam53a — p65 translocation robust z-score = -1.73 (active); nuclear/cytoplasmic p65 ratio, rep 1 = 1.1; nuclear/cytoplasmic p65 ratio, rep 2 = 1.27; low cell count flag = enough cells to score
Polm — nuclear/cytoplasmic p65 ratio, rep 1 = 1.31; nuclear/cytoplasmic p65 ratio, rep 2 = 1.2; low cell count flag = fewer than 50 cells per well; well left out of scoring
Qpctl — p65 translocation robust z-score = -0.97; nuclear/cytoplasmic p65 ratio, rep 1 = 1.22; nuclear/cytoplasmic p65 ratio, rep 2 = 1.34; low cell count flag = enough cells to score
Bub1b — p65 translocation robust z-score = -1.5; nuclear/cytoplasmic p65 ratio, rep 1 = 1.41; nuclear/cytoplasmic p65 ratio, rep 2 = 1.23; low cell count flag = enough cells to score
